Data source: PubChem BioAssay AID493246 (Drosophila RNAi Screening Center, 2011)
Test: 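Identify essential fly genes by loss of cell viability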 (primary screen). Cells: Drosophila Kc and S2R+ cells. Knock-down reagent: long dsRNA against Drosophila genes. Measured: 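Raw, unnormalised count of remaining cells in each well; per-plate z-scores of cell number underlie the calls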. Scale: Kc cell number and S2R+ cell number: higher = more cells remaining. Hit rule: 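Counted as a hit if cell number falls by a z-score of at least 3 within its plate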.
The screen tested about 21,000 reagents; this is a random part of those that have a named target and a result. In the full data, 429 (2%) got an active call. 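Values are raw and not normalised between plates; calls rest on per-plate z-scores that were not deposited.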 Reagents against one gene are numbered here. A plus sign joins genes that one reagent is predicted to hit. Not stated in the record: the amount of reagent, the time to read-out.

Which result is listed for Pgant8 (Polypeptide N-Acetylgalactosaminyltransferase 8)?
Kc cell number, rep 1: 1.35e6; Kc cell number, rep 2: 1.46e6; S2R+ cell number, rep 1: 1.33e6; S2R+ cell number, rep 2: 1.43e6; outcome: inactive

What is on record for Cp16 (Chorion protein 16)?
Kc cell number, rep 1: 1.25e6; Kc cell number, rep 2: 1.37e6; S2R+ cell number, rep 1: 1.19e6; S2R+ cell number, rep 2: 1.26e6; outcome: inactive

How did the screen score CG3581?
Kc cell number, rep 1: 1.34e6; Kc cell number, rep 2: 1.35e6; S2R+ cell number, rep 1: 9.90e5; S2R+ cell number, rep 2: 1.10e6; outcome: inactive

For CG9624, what was measured?
Kc cell number, rep 1: 1.20e6; Kc cell number, rep 2: 1.22e6; S2R+ cell number, rep 1: 9.71e5; S2R+ cell number, rep 2: 1.16e6; outcome: inactive

For CG31104, how do the results read?
Kc cell number, rep 1: 1.59e6; Kc cell number, rep 2: 1.64e6; S2R+ cell number, rep 1: 1.06e6; S2R+ cell number, rep 2: 1.21e6; outcome: inactive

For CG31462 (retired record), what was measured?
Kc cell number, rep 1: 1.52e6; Kc cell number, rep 2: 1.64e6; S2R+ cell number, rep 1: 1.28e6; S2R+ cell number, rep 2: 1.37e6; outcome: inactive

What did the screen give for CG9444?
Kc cell number, rep 1: 1.34e6; Kc cell number, rep 2: 1.48e6; S2R+ cell number, rep 1: 1.34e6; S2R+ cell number, rep 2: 1.47e6; outcome: inactive

Which result is listed for Ir87a (Ionotropic receptor 87a)?
Kc cell number, rep 1: 1.23e6; Kc cell number, rep 2: 1.31e6; S2R+ cell number, rep 1: 1.09e6; S2R+ cell number, rep 2: 1.23e6; outcome: inactive

For CG1271, what does the deposit list?
Kc cell number, rep 1: 1.26e6; Kc cell number, rep 2: 1.36e6; S2R+ cell number, rep 1: 1.18e6; S2R+ cell number, rep 2: 6.93e5; outcome: inactive

No new results follow: entries from further up.
CG3581 → Kc cell number, rep 1 = 1.34e6; Kc cell number, rep 2 = 1.35e6; S2R+ cell number, rep 1 = 9.90e5; S2R+ cell number, rep 2 = 1.10e6; outcome = inactive
CG9624 → Kc cell number, rep 1 = 1.20e6; Kc cell number, rep 2 = 1.22e6; S2R+ cell number, rep 1 = 9.71e5; S2R+ cell number, rep 2 = 1.16e6; outcome = inactive
CG31104 → Kc cell number, rep 1 = 1.59e6; Kc cell number, rep 2 = 1.64e6; S2R+ cell number, rep 1 = 1.06e6; S2R+ cell number, rep 2 = 1.21e6; outcome = inactive

The list goes on:
Which result is listed for Gale (UDP-galactose 4'-epimerase)?
Kc cell number, rep 1: 1.27e6; Kc cell number, rep 2: 1.37e6; S2R+ cell number, rep 1: 1.06e6; S2R+ cell number, rep 2: 1.10e6; outcome: inactive

What is on record for hng2 (hinge2)?
Kc cell number, rep 1: 1.40e6; Kc cell number, rep 2: 1.48e6; S2R+ cell number, rep 1: 1.29e6; S2R+ cell number, rep 2: 1.36e6; outcome: inactive

How did the screen score Dp1 (Dodeca-satellite-binding protein 1)?
Kc cell number, rep 1: 1.60e6; Kc cell number, rep 2: 1.56e6; S2R+ cell number, rep 1: 9.92e5; S2R+ cell number, rep 2: 1.11e6; outcome: inactive

Which result is listed for RpS16 (Ribosomal protein S16)?
Kc cell number, rep 1: 1.14e6; Kc cell number, rep 2: 1.20e6; S2R+ cell number, rep 1: 9.90e5; S2R+ cell number, rep 2: 1.07e6; outcome: active

With CG17026, what does the deposit list?
Kc cell number, rep 1: 1.27e6; Kc cell number, rep 2: 1.49e6; S2R+ cell number, rep 1: 1.20e6; S2R+ cell number, rep 2: 1.33e6; outcome: inactive

What did the screen give for zuc (zucchini)?
Kc cell number, rep 1: 1.41e6; Kc cell number, rep 2: 1.50e6; S2R+ cell number, rep 1: 1.29e6; S2R+ cell number, rep 2: 1.26e6; outcome: inactive

For SH3PX1 (SH3 and PX domain containing 1), what does the deposit list?
Kc cell number, rep 1: 1.32e6; Kc cell number, rep 2: 1.38e6; S2R+ cell number, rep 1: 1.27e6; S2R+ cell number, rep 2: 1.32e6; outcome: inactive

What did the screen give for Ugt36E1 (UDP-glycosyltransferase family 36 member E1)?
Kc cell number, rep 1: 1.27e6; Kc cell number, rep 2: 1.36e6; S2R+ cell number, rep 1: 1.24e6; S2R+ cell number, rep 2: 1.22e6; outcome: inactive

For dpr15 (defective proboscis extension response 15) #1, what does the deposit list?
Kc cell number, rep 1: 1.50e6; Kc cell number, rep 2: 1.68e6; S2R+ cell number, rep 1: 1.08e6; S2R+ cell number, rep 2: 1.21e6; outcome: inactive

For dpr15 (defective proboscis extension response 15) #2, how do the results read?
Kc cell number, rep 1: 1.52e6; Kc cell number, rep 2: 1.46e6; S2R+ cell number, rep 1: 1.08e6; S2R+ cell number, rep 2: 1.19e6; outcome: inactive

For dpr15 (defective proboscis extension response 15) #3, how do the results read?
Kc cell number, rep 1: 1.71e6; Kc cell number, rep 2: 1.64e6; S2R+ cell number, rep 1: 1.37e6; S2R+ cell number, rep 2: 1.50e6; outcome: inactive

What did the screen give for CG8191 + CG12379?
Kc cell number, rep 1: 1.71e6; Kc cell number, rep 2: 1.70e6; S2R+ cell number, rep 1: 1.22e6; S2R+ cell number, rep 2: 1.32e6; outcome: inactive
